# Some of the results follow.
# Protein sequences, listed by entry. Tags and fused reporters are not part of them. Lines headed by an entry give the natural chain unless they say otherwise; changes in a name come on top.
# UniProt Q9H0N5: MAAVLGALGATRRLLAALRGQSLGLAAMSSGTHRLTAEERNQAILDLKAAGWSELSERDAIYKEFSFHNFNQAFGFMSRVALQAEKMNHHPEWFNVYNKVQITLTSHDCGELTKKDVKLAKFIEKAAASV
# UniProt Q5JVF3: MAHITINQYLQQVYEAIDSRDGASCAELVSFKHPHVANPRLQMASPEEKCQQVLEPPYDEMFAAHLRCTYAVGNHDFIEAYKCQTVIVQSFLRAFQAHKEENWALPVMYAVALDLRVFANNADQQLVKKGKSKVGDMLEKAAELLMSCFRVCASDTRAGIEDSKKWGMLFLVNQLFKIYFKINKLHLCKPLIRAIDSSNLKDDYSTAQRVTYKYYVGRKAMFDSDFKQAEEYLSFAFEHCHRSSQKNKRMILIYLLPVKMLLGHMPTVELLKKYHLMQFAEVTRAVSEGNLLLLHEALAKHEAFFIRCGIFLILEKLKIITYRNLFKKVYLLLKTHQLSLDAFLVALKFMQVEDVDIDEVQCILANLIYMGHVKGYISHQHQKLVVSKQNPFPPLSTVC
# UniProt Q86U86, whole entry, looked up: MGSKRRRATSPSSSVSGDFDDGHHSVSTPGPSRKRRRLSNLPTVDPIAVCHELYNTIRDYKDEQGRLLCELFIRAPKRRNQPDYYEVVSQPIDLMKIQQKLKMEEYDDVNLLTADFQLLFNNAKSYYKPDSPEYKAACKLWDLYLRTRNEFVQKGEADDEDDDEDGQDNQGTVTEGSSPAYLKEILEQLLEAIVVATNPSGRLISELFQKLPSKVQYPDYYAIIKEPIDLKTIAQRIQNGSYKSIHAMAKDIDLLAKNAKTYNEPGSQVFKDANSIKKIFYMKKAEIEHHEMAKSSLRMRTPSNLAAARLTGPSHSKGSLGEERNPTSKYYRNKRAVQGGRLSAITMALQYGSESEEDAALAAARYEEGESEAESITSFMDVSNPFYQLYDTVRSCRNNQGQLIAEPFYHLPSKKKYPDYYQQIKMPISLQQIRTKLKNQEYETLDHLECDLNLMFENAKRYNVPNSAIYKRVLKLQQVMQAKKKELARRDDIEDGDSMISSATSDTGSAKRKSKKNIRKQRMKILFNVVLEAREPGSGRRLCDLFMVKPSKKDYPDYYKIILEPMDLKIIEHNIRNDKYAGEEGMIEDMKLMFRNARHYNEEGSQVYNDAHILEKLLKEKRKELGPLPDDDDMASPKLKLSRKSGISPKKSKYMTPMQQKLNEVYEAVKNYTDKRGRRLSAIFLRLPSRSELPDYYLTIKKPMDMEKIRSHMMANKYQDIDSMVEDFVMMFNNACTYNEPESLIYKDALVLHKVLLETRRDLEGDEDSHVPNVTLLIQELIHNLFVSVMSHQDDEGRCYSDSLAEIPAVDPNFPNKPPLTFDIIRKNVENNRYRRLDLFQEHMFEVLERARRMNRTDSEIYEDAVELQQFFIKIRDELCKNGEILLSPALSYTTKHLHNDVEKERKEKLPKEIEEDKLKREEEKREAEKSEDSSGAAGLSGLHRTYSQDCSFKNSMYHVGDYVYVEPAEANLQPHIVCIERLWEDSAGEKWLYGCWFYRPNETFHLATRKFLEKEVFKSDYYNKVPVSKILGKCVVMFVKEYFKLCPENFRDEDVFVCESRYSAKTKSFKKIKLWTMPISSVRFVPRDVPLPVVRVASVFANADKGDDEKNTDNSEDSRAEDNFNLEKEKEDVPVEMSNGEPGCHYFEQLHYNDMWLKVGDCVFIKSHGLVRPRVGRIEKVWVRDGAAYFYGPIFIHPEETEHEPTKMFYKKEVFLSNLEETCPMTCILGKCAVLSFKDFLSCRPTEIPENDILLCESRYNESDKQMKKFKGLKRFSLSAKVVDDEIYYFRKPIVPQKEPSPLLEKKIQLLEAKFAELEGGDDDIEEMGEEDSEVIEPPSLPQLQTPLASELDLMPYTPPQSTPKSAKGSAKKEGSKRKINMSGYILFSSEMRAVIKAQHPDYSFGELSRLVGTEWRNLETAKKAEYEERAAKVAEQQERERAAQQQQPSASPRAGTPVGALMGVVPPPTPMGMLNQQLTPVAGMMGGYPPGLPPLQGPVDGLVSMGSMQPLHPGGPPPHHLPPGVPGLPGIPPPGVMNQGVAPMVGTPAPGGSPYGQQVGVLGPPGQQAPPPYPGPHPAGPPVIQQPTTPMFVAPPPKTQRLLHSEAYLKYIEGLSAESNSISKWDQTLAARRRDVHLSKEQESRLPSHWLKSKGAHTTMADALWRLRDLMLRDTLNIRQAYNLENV
# UniProt Q99447: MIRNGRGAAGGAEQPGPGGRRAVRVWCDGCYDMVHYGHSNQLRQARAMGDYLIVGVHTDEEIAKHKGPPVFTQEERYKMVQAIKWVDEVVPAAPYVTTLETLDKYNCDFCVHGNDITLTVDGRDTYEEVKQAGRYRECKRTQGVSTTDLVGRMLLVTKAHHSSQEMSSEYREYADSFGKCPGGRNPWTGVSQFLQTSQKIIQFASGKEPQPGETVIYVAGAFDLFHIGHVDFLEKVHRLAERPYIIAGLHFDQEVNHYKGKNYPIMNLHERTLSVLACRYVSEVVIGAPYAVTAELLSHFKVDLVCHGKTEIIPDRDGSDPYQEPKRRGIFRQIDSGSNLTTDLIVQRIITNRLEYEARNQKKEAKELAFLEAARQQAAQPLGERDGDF
# UniProt Q5VU43: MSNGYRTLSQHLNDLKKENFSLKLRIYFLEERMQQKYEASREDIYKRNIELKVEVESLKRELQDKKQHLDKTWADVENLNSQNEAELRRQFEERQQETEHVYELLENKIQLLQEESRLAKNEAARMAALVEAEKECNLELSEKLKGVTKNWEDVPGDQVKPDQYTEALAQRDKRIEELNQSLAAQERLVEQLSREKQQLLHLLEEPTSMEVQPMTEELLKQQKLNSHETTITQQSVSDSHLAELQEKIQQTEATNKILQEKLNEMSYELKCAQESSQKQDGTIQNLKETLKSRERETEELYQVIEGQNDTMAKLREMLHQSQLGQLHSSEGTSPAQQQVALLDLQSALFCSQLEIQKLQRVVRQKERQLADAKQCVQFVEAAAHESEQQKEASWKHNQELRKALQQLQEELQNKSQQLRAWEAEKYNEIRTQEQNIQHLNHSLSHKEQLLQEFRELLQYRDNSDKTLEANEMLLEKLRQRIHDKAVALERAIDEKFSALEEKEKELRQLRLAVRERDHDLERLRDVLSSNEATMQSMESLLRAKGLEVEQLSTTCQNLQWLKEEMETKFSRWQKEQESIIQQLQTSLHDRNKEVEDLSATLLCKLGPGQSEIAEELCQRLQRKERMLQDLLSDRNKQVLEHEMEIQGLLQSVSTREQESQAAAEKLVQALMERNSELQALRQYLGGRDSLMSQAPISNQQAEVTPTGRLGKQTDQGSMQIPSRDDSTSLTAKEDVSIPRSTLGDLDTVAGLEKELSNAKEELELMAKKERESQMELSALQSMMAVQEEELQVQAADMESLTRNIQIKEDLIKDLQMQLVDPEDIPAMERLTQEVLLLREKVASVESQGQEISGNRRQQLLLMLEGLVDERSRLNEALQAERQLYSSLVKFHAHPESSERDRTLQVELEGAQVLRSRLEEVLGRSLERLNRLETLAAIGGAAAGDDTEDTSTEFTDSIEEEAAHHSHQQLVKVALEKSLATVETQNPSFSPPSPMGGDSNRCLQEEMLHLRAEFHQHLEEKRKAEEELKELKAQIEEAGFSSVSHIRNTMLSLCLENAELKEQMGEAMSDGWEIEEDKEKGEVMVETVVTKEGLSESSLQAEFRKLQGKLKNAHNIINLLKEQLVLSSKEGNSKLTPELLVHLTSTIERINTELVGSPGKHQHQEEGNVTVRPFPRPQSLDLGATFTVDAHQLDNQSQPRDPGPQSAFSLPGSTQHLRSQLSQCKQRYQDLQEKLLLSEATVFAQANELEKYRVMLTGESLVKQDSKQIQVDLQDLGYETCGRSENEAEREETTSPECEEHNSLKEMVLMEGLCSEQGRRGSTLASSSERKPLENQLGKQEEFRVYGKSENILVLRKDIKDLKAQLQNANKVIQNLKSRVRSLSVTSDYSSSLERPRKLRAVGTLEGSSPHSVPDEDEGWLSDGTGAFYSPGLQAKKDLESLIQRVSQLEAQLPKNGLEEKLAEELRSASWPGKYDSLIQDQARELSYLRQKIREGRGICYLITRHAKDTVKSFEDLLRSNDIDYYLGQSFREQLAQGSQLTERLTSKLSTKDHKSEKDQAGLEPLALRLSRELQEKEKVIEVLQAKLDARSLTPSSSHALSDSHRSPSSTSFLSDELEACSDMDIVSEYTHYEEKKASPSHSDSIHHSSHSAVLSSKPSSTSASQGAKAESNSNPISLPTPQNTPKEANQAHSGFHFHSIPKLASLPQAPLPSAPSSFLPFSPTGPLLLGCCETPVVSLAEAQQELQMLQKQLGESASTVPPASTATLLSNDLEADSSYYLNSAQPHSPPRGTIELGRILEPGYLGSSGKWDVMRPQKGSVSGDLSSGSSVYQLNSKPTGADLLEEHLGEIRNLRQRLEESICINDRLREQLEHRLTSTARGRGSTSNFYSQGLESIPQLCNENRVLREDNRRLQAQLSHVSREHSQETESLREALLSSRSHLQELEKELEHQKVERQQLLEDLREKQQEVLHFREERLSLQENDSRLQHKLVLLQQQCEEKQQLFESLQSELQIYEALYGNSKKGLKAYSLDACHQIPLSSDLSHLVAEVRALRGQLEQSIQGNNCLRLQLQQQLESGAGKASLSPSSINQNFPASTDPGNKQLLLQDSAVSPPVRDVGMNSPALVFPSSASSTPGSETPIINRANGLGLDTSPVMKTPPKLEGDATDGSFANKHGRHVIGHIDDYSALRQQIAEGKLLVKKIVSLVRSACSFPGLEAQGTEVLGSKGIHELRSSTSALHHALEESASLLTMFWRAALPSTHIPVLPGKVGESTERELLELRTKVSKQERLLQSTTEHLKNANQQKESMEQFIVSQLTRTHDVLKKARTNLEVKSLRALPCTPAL
# UniProt P05166: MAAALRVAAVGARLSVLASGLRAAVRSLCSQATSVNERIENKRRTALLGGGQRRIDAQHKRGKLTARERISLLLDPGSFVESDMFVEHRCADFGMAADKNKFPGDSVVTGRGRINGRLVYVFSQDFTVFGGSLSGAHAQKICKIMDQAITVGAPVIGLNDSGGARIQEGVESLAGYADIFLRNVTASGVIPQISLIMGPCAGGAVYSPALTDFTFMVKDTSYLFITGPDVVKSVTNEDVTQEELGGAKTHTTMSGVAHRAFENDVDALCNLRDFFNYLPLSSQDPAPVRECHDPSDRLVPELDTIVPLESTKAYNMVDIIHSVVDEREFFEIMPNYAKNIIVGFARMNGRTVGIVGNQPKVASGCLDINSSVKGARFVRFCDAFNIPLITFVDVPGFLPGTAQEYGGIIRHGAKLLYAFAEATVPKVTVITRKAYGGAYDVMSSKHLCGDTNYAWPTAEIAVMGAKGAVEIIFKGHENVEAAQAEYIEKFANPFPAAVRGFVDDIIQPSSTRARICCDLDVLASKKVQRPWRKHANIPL
# UniProt Q86TB9: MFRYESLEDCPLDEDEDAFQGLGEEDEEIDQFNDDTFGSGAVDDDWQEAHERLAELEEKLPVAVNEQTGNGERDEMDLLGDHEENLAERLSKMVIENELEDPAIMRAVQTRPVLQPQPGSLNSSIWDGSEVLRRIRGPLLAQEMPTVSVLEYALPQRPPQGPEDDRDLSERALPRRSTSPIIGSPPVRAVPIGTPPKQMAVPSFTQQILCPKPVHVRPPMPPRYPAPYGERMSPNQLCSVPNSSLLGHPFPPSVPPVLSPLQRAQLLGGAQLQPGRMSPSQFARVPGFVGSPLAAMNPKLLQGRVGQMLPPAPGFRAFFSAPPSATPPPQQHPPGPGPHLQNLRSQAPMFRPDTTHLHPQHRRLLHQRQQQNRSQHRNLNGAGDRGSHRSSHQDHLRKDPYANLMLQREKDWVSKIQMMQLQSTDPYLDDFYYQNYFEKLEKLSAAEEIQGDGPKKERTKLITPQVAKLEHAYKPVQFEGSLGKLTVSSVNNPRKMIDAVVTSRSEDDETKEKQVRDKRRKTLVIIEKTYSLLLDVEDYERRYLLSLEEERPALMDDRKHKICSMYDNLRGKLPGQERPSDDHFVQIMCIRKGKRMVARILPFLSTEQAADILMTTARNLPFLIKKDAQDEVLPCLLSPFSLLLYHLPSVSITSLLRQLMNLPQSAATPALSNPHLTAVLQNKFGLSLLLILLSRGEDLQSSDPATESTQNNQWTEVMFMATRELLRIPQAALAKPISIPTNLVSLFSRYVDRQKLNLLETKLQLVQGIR
# UniProt O00151: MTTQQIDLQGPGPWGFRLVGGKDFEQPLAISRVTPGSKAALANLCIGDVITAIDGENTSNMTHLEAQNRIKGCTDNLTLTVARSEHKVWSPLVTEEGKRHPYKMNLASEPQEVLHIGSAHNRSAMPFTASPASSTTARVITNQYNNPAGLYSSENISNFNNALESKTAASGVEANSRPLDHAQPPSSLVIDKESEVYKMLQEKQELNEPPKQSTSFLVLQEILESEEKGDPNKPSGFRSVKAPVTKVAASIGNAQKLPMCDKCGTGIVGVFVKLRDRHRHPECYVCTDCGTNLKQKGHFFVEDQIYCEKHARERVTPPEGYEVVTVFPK
# Compound: Cc1cc(ccc1-c1ccccc1)C(=O)N1CCCN(CC1)C(=O)CCl [compound 10]
# Assay: probe-labelled cysteine peptide fold change vs DMSO (competition) (log2 fold change); higher = less target engagement (more negative = stronger competition)
# Conditions: THP-1, incubation time: 4 h
# 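Further: competitive profiling in live THP-1 cells: cysteine peptides tagged with an iodoacetamide desthiobiotin (IA-DTB) probe, intensity after compound treatment relative to DMSO-treated cells.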
Target,probe-labelled cysteine peptide fold change (10 µM),probe-labelled cysteine peptide fold change (50 µM)
PDHA1_P08559_222_LPCIFICENNR (UniProt P08559),0.133,-0.277
PDIA5_Q14554_81_GQGTICWVDCGDAESR (UniProt Q14554),-0.0401,0.0612
PDHB_P11177_249_QGTHITVVSHSRPVGHCLEAAAVLSK (UniProt P11177),0.0439,-0.246
PDIA6_Q15084_297_RTCEEHQLCVVAVLPHILDTGAAGR (UniProt Q15084),-0.00692,-0.143
PDCD2L_Q9BRP1_80_LLHVFACACPGCSTGGAR (UniProt Q9BRP1),0.0718,-0.203
PCM1_Q15154_1616_EHMDEVCSSQLLTSVR (UniProt Q15154),0.207,0.0857
PDLIM7_Q9NR12_364_MTWHVHCFTCAACK (UniProt Q9NR12),-0.0792,-0.0447
PDCD11_Q14690_361_LSCQNLGAVLDDVPVQGFFK (UniProt Q14690),-0.3,-1.02
PCBD2_Q9H0N5_109_VQITLTSHDCGELTK (UniProt Q9H0N5),0.176,0.164
PCYOX1_Q9UHG3_258_LVCSGLLQASK (UniProt Q9UHG3),-0.036,0.294
PCID2_Q5JVF3_68_CTYAVGNHDFIEAYK (UniProt Q5JVF3),0.477,0.274
PBRM1_Q86U86_1224+1228_EVFLSNLEETCPMTCILGK (UniProt Q86U86),-0.202,-0.224
PCID2_Q5JVF3_148_AAELLMSCFR (UniProt Q5JVF3),0.362,0.294
PCNA_P12004_81_CAGNEDIITLR (UniProt P12004),0.0309,0.182
PAXX_Q9BUH6_24_FVCYCEGEESGEGDR (UniProt Q9BUH6),-0.0295,0.106
PCYT2_Q99447_110_YNCDFCVHGNDITLTVDGR (UniProt Q99447),0.0192,-0.879
PDS5A_Q29RF7_1084_LYTVCDVALCVINSK (UniProt Q29RF7),0.00818,0.0739
PCM1_Q15154_1867_NDQNNCPVK (UniProt Q15154),-0.33,0.367
PDE4DIP_Q5VU43_375_QCVQFVEAAAHESEQQK (UniProt Q5VU43),-0.0153,-0.224

# Looked up above.
# PDE4DIP_Q5VU43_375_QCVQFVEAAAHESEQQK (UniProt Q5VU43) – probe-labelled cysteine peptide fold change (10 µM): -0.0153
# PBRM1_Q86U86_1224+1228_EVFLSNLEETCPMTCILGK (UniProt Q86U86) – probe-labelled cysteine peptide fold change (50 µM): -0.224

# The list goes on.

Target,probe-labelled cysteine peptide fold change (10 µM),probe-labelled cysteine peptide fold change (50 µM)
PCBD2_Q9H0N5_109_VQITLTSHDCGELTKK (UniProt Q9H0N5),0.133,-0.439
PCCB_P05166_291_DFFNYLPLSSQDPAPVRECHDPSDR (UniProt P05166),-0.474,-0.454
PDIA3_P30101_57_ISDTGSAGLMLVEFFAPWCGHCK (UniProt P30101),-0.169,-0.449
PCGF5_Q86SE9_34_GYLIKPTTVTECLHTFCK (UniProt Q86SE9),0.136,0.0991
PDXDC1_Q6P996_425_HSCDALNR (UniProt Q6P996),-0.0568,-0.367
PDPR_Q8NCN5_357_LVNCPETFTPDMR (UniProt Q8NCN5),-0.0989,-0.113
PCK2_Q16822_63_LCQPEGIHICDGTEAENTATLTLLEQQGLIR (UniProt Q16822),-0.371,0.0104
PDCD11_Q14690_557_DYGCIVK (UniProt Q14690),-0.0517,0.208
PCCB_P05166_291_ECHDPSDRLVPELDTIVPLESTK (UniProt P05166),-0.466,-0.0906
PARP4_Q9UKK3_380_CKIEHVEQNTEEFLR (UniProt Q9UKK3),-0.349,-0.37
PDF_Q9HBH1_68_LVLGPPEPPFSHVCQVGDPVLR (UniProt Q9HBH1),-0.0864,0.113
PBK_Q96KB5_70_KINPICNDHYR (UniProt Q96KB5),-0.0226,-0.316
PCBP1_Q15365_201_CSDAAGYPHATHDLEGPPLDAYSIQGQHTISPLDLAK (UniProt Q15365),-0.148,-0.076
PCNT_O95613_2059_VLEDCQLPK (UniProt O95613),-0.0417,-0.33
PATL1_Q86TB9_589_GKLPGQERPSDDHFVQIMCIR (UniProt Q86TB9),-0.0158,0.0528
PDLIM1_O00151_263_CGTGIVGVFVK (UniProt O00151),0.0159,-0.62
PDCD11_Q14690_1062_SIKPTHVVVTLEDGIIGCIHASHILDDVPEGTSPTTK (UniProt Q14690),0.0044,0.201
PDLIM1_O00151_289_HPECYVCTDCGTNLK (UniProt O00151),0.0195,0.068
PDCD11_Q14690_1154_QYQAGQTVTCFLK (UniProt Q14690),-0.169,0.294

# Source: the supplement of paper PMC12067093, “Discovery and optimisation of a covalent ligand for TRIM25 and its application to targeted protein ubiquitination” (Chemical Science, 2025)
